Consider four molecules from publication PMC10415182.

Substitutions are numbered along the chain they refer to. No constants are given. Whether binding was seen depends on the method and setting. In cells and extracts the contact can be indirect. Some binding calls cover weakened binding; strength is not graded here. Sequences can lack the tags named with a protein.

For assay [1], the target named is T1, yArf1–GFP (wild-type yeast Arf1 C-terminally fused to GFP) (yeast (Saccharomyces cerevisiae)) (UniProt P11076).
T1 sequence: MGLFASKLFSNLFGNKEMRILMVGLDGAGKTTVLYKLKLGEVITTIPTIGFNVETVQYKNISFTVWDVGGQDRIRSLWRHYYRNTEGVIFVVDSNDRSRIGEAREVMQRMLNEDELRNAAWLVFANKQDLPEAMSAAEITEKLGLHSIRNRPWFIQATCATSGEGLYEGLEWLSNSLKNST
As to the kind of experiment: co-IP; anti-GFP magnetic beads (Chromotek) on yeast lysate, 1 h at 4 °C; IP buffer 25 mM Tris–HCl pH 7.5, 150 mM NaCl, 2 mM EDTA, 0.6% Triton X-100, 1 mM DTT; strains grown at 23 °C or shifted to 37 °C; 6xHA-tagged partners on the blot.

Assay [2] deals with T2, yArf1-11–GFP (yeast Arf1 K38T–E132D–L173S C-terminally fused to GFP) (yeast (Saccharomyces cerevisiae)) (UniProt P11076).
T2 sequence: T1 sequence with K38T, E132D, L173S
The assay is described as above.

B1: Faa1-6xHA (enzyme, UniProt P30624 1-700)
chain: MVAQYTVPVGKAANEHETAPRRNYQCREKPLVRPPNTKCSTVYEFVLECFQKNKNSNAMGWRDVKEIHEESKSVMKKVDGKETSVEKKWMYYELSHYHYNSFDQLTDIMHEIGRGLVKIGLKPNDDDKLHLYAATSHKWMKMFLGAQSQGIPVVTAYDTLGEKGLIHSLVQTGSKAIFTDNSLLPSLIKPVQAAQDVKYIIHFDSISSEDRRQSGKIYQSAHDAINRIKEVRPDIKTFSFDDILKLGKESCNEIDVHPPGKDDLCCIMYTSGSTGEPKGVVLKHSNVVAGVGGASLNVLKFVGNTDRVICFLPLAHIFELVFELLSFYWGACIGYATVKTLTSSSVRNCQGDLQEFKPTIMVGVAAVWETVRKGILNQIDNLPFLTKKIFWTAYNTKLNMQRLHIPGGGALGNLVFKKIRTATGGQLRYLLNGGSPISRDAQEFITNLICPMLIGYGLTETCASTTILDPANFELGVAGDLTGCVTVKLVDVEELGYFAKNNQGEVWITGANVTPEYYKNEEETSQALTSDGWFKTGDIGEWEANGHLKIIDRKKNLVKTMNGEYIALEKLESVYRSNEYVANICVYADQSKTKPVGIIVPNHAPLTKLAKKLGIMEQKDSSINIENYLEDAKLIKAVYSDLLKTGKDQGLVGIELLAGIVFFDGEWTPQNGFVTSAQKLKRKDILNAVKDKVDAVYSSS
As to B1, the binding result in assay [1] and in assay [2] was “binds” each time.

B2: Dga1-6xHA (enzyme, UniProt Q08650 1-418)
chain: MSGTFNDIRRRKKEEGSPTAGITERHENKSLSSIDKREQTLKPQLESCCPLATPFERRLQTLAVAWHTSSFVLFSIFTLFAISTPALWVLAIPYMIYFFFDRSPATGEVVNRYSLRFRSLPIWKWYCDYFPISLIKTVNLKPTFTLSKNKRVNEKNYKIRLWPTKYSINLKSNSTIDYRNQECTGPTYLFGYHPHGIGALGAFGAFATEGCNYSKIFPGIPISLMTLVTQFHIPLYRDYLLALGISSVSRKNALRTLSKNQSICIVVGGARESLLSSTNGTQLILNKRKGFIKLAIQTGNINLVPVFAFGEVDCYNVLSTKKDSVLGKMQLWFKENFGFTIPIFYARGLFNYDFGLLPFRAPINVVVGRPIYVEKKITNPPDDVVNHFHDLYIAELKRLYYENREKYGVPDAELKIVG
For B2, the binding entry in assay [1] and in assay [2] was “binds” each time.

B3: Pex13-6xHA (protein, UniProt P80667 1-386)
chain: MSSTAVPRPKPWETSASLEEPQRNAQSLSAMMTSNQQDSRPTEESNNSNSASESAPEVLPRPAALNSSGTYGESNTIPGIYGNSNYGIPYDNNPYSMNSIYGNSIGRYGYGGSYYGNNYGSFYGGGYGAGAGYGMNNGSGLGESTKATFQLIESLIGAVTGFAQMLESTYMATHNSFFTMISVAEQFGNLKEMLGSFFGIFAIMKFLKKILYRATKGRLGIPPKNFAESEGSKNKLIEDFQKFNDSGTINSNEKATRRKISWKPLLFFLMAVFGFPYLLNKFITKLQTSGTIRASQGNGSEPIDPSKLEFARALYDFVPENPEMEVALKKGDLMAILSKKDPLGRDSDWWKVRTKNGNIGYIPYNYIEIIKRRKKIEHVDDETRTH
Regarding B3, the binding entry in assay [1] and in assay [2] was “binds” each time.

B4: Tgl4-6xHA (enzyme, UniProt P36165 1-910)
chain: MSSKISDLTSTQNKPLLVTQQLIEKYYEQILGTSQNIIPILNPKNKFIRPSKDNSDVERVEEDAGKRLQTGKNKTTNKVNFNLDTGNEDKLDDDQETVTENENNDIEMVETDEGEDERQGSSLASKCKSFLYNVFVGNYERDILIDKVCSQKQHAMSFEEWCSAGARLDDLTGKTEWKQKLESPLYDYKLIKDLTSRMREERLNRNYAQLLYIIRTNWVRNLGNMGNVNLYRHSHVGTKYLIDEYMMESRLALESLMESDLDDSYLLGILQQTRRNIGRTALVLSGGGTFGLFHIGVLGTLFELDLLPRVISGSSAGAIVASILSVHHKEEIPVLLNHILDKEFNIFKDDKQKSESENLLIKISRFFKNGTWFDNKHLVNTMIEFLGDLTFREAYNRTGKILNITVSPASLFEQPRLLNNLTAPNVLIWSAVCASCSLPGIFPSSPLYEKDPKTGERKPWTGSSSVKFVDGSVDNDLPISRLSEMFNVDHIIACQVNIHVFPFLKLSLSCVGGEIEDEFSARLKQNLSSIYNFMANEAIHILEIGSEMGIAKNALTKLRSVLSQQYSGDITILPDMCMLFRIKELLSNPTKEFLLREITNGAKATWPKVSIIQNHCGQEFALDKAISYIKGRMIVTSSLKTPFQFADSVIGLIKAPEQTSDESKNPENSTLLTRTPTKGDNHISNVLDDNLLESESTNSLLLLRENASTYGRSPSGFRPRYSITSASLNPRHQRRKSDTISTSRRPAKSFSFSVASPTSRMLRQSSKINGHPPPILQKKTSMGRLMFPMDAKTYDPESHELIPHSASIETPAMVDKKLHFGRKSRYLRHMNKKWVSSSNILYTDSDKEDHPTLRLISNFDSDAMIHSDLAGNFRRHSIDGRPPSQATKSSPFRSRPSSSTQHKSTTSFTQ
B4: the binding entry in assay [1] and in assay [2] was “binds” in each case.
